# Laboratory results: PubChem BioAssay AID1224830 (NIAID, 2016)
# Screen: 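Genes whose knock-down alters the TNF-alpha reporter response to LPS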 (primary screen)
# Cell system: human THP-1 monocytic leukaemia cells, TNF dual-luciferase reporter clone, PMA-differentiated to macrophage-like cells
# Reagents: siRNA pool against human genes, 50 nM
# Duration: LPS for 4 h, given about 3 days after siRNA transfection
# Challenge: bacterial LPS (TLR4 ligand), 10 ng/ml
# Measurement: 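Ratio of firefly to renilla light, scaled to the plate median and expressed as a robust z-score per replicate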
# Direction: TNF reporter robust z-score: higher = stronger TNF reporter response to LPS
# Rule for the call: 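Each well counts as active if its z-score is over 2.8 or under -1.5; controls are left without a call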
# The deposit covers about 18,000 reagents; shown is a random part of them. About 2,900 of them (16%) were called active. 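Calls are made per well; low scores hint the gene aids the LPS response, high scores that it dampens it.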 Repeated entries: four replicate wells of each siRNA pool.
target,TNF reporter robust z-score,outcome
DPP7 (GeneID 29952),1.8,inactive
DPP7 (GeneID 29952),1.46,inactive
DPP7 (GeneID 29952),0.72,inactive
DPP7 (GeneID 29952),1.75,inactive
TBCA (GeneID 6902),-1.61,active
TBCA (GeneID 6902),-0.77,inactive
TBCA (GeneID 6902),-0.83,inactive
TBCA (GeneID 6902),-1.25,inactive
UNC5D (GeneID 137970),-0.67,inactive
UNC5D (GeneID 137970),0.44,inactive
UNC5D (GeneID 137970),-0.68,inactive
UNC5D (GeneID 137970),-0.88,inactive
OR10V1 (GeneID 390201),-0.62,inactive
OR10V1 (GeneID 390201),-0.46,inactive
OR10V1 (GeneID 390201),-0.86,inactive
OR10V1 (GeneID 390201),-0.83,inactive
FAM221B (GeneID 392307),1.82,inactive
FAM221B (GeneID 392307),6.36,active
FAM221B (GeneID 392307),5.13,active
FAM221B (GeneID 392307),3.94,active
PLXNB3 (GeneID 5365),-0.39,inactive
PLXNB3 (GeneID 5365),-0.5,inactive
PLXNB3 (GeneID 5365),1.01,inactive
PLXNB3 (GeneID 5365),-0.94,inactive
POLR1D (GeneID 51082),0.43,inactive
POLR1D (GeneID 51082),-0.02,inactive
POLR1D (GeneID 51082),0.11,inactive
POLR1D (GeneID 51082),0.79,inactive
CDNF (GeneID 441549),-1.2,inactive
CDNF (GeneID 441549),0.1,inactive
CDNF (GeneID 441549),-1,inactive
CDNF (GeneID 441549),0.97,inactive
LOC389834 (GeneID 389834),-0.92,inactive
LOC389834 (GeneID 389834),-1.27,inactive
LOC389834 (GeneID 389834),-2.14,active
LOC389834 (GeneID 389834),-1.35,inactive
FBLN7 (GeneID 129804),-0.22,inactive
FBLN7 (GeneID 129804),0.07,inactive
FBLN7 (GeneID 129804),-0.1,inactive
FBLN7 (GeneID 129804),0.26,inactive
FAM229B (GeneID 619208),0.04,inactive
FAM229B (GeneID 619208),0.46,inactive
FAM229B (GeneID 619208),0.51,inactive
FAM229B (GeneID 619208),1.38,inactive
RRM1 (GeneID 6240),-0.08,inactive
RRM1 (GeneID 6240),-0.39,inactive
RRM1 (GeneID 6240),-0.26,inactive
RRM1 (GeneID 6240),0.56,inactive
WDR37 (GeneID 22884),-1.33,inactive
WDR37 (GeneID 22884),-1.59,active
WDR37 (GeneID 22884),-0.69,inactive
WDR37 (GeneID 22884),-0.95,inactive
DHX57 (GeneID 90957),-0.51,inactive
DHX57 (GeneID 90957),-0.73,inactive
DHX57 (GeneID 90957),-0.87,inactive
DHX57 (GeneID 90957),-0.27,inactive
IRS2 (GeneID 8660),1.4,inactive
IRS2 (GeneID 8660),1.25,inactive
IRS2 (GeneID 8660),0.02,inactive
IRS2 (GeneID 8660),0.12,inactive
SLC66A2 (GeneID 80148),0.23,inactive
SLC66A2 (GeneID 80148),1.31,inactive
SLC66A2 (GeneID 80148),0.87,inactive
SLC66A2 (GeneID 80148),0.95,inactive
NDUFA1 (GeneID 4694),-0.75,inactive
NDUFA1 (GeneID 4694),-0.88,inactive
NDUFA1 (GeneID 4694),-1.56,active
NDUFA1 (GeneID 4694),-1.12,inactive
ARHGEF5 (GeneID 7984),0.12,inactive
ARHGEF5 (GeneID 7984),1.41,inactive
ARHGEF5 (GeneID 7984),0.87,inactive
ARHGEF5 (GeneID 7984),1.25,inactive
RAC2 (GeneID 5880),-0.54,inactive
RAC2 (GeneID 5880),0.13,inactive
RAC2 (GeneID 5880),0.12,inactive
RAC2 (GeneID 5880),0.42,inactive
KMT2D (GeneID 8085),2.85,active
KMT2D (GeneID 8085),2.31,inactive
KMT2D (GeneID 8085),0.27,inactive
KMT2D (GeneID 8085),-0.16,inactive
PRKCI (GeneID 5584),1.15,inactive
PRKCI (GeneID 5584),0.39,inactive
PRKCI (GeneID 5584),0.27,inactive
PRKCI (GeneID 5584),-0.68,inactive
SLC16A3 (GeneID 9123),0.25,inactive
SLC16A3 (GeneID 9123),1.53,inactive
SLC16A3 (GeneID 9123),0.36,inactive
SLC16A3 (GeneID 9123),0.34,inactive
TTC1 (GeneID 7265),-0.94,inactive
TTC1 (GeneID 7265),-1.08,inactive
TTC1 (GeneID 7265),-1.13,inactive
TTC1 (GeneID 7265),-0.31,inactive
TST (GeneID 7263),-0.85,inactive
TST (GeneID 7263),0.83,inactive
TST (GeneID 7263),0.32,inactive
TST (GeneID 7263),2.35,inactive
TSSK6 (GeneID 83983),2.69,inactive
TSSK6 (GeneID 83983),2.92,active
TSSK6 (GeneID 83983),0.08,inactive
TSSK6 (GeneID 83983),2.16,inactive
PRR14 (GeneID 78994),-2.21,active
PRR14 (GeneID 78994),-2.06,active
PRR14 (GeneID 78994),-2.01,active
PRR14 (GeneID 78994),-1.93,active
HMG20A (GeneID 10363),-1.62,active
HMG20A (GeneID 10363),-0.64,inactive
HMG20A (GeneID 10363),0.12,inactive
HMG20A (GeneID 10363),-0.06,inactive
KLF2 (GeneID 10365),-1.82,active
KLF2 (GeneID 10365),-0.9,inactive
KLF2 (GeneID 10365),-0.88,inactive
KLF2 (GeneID 10365),-0.83,inactive
